Results are given in words; binding and its absence hold for the method and conditions named. Binding seen in cells or lysates may run through a third protein. Some binding calls cover weakened binding; strength is not graded here. Sequences can lack the tags named with a protein.
Key:
Assay in all cases: co-IP; FLAG- and HA-tagged proteins cotransfected into Arabidopsis protoplasts from root cell suspension cultures; 10 µM MG132 for 6 h; lysis in 50 mM Tris-HCl pH 7.6, 150 mM NaCl, 1% NP-40, 0.1% SDS; anti-FLAG (anti-DYKDDDDK) or anti-HA magnetic beads, 4 °C; western blot
[1] = molecular target: T1, ERL1-HA (Arabidopsis thaliana) (UniProt C0LGW6)
T1 sequence: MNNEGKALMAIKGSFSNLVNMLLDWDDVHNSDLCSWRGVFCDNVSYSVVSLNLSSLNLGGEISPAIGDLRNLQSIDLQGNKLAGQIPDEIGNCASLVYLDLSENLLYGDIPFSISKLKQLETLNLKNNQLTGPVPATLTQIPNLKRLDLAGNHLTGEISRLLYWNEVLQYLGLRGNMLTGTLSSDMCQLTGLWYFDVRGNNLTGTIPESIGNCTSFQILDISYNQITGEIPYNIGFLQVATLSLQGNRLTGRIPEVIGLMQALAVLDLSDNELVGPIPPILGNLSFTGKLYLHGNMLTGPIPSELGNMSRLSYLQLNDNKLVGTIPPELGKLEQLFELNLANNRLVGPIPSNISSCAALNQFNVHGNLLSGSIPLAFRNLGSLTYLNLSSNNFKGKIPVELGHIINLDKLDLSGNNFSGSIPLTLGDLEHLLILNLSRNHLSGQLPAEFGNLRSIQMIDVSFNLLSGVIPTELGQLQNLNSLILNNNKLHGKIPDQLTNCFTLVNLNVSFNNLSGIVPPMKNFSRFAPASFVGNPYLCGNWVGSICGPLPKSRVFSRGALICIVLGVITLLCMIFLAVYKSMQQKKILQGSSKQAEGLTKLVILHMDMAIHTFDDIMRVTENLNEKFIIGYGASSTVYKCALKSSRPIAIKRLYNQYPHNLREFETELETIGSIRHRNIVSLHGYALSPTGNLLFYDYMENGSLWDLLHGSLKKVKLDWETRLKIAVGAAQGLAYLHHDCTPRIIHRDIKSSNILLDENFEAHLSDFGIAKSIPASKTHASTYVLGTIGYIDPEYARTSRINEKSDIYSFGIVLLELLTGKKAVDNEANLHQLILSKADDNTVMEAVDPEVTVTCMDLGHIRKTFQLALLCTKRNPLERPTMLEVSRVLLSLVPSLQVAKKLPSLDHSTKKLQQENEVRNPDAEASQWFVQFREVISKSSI

[2] = molecular target: T2, ERL2-HA (Arabidopsis thaliana) (UniProt Q6XAT2)
T2 sequence: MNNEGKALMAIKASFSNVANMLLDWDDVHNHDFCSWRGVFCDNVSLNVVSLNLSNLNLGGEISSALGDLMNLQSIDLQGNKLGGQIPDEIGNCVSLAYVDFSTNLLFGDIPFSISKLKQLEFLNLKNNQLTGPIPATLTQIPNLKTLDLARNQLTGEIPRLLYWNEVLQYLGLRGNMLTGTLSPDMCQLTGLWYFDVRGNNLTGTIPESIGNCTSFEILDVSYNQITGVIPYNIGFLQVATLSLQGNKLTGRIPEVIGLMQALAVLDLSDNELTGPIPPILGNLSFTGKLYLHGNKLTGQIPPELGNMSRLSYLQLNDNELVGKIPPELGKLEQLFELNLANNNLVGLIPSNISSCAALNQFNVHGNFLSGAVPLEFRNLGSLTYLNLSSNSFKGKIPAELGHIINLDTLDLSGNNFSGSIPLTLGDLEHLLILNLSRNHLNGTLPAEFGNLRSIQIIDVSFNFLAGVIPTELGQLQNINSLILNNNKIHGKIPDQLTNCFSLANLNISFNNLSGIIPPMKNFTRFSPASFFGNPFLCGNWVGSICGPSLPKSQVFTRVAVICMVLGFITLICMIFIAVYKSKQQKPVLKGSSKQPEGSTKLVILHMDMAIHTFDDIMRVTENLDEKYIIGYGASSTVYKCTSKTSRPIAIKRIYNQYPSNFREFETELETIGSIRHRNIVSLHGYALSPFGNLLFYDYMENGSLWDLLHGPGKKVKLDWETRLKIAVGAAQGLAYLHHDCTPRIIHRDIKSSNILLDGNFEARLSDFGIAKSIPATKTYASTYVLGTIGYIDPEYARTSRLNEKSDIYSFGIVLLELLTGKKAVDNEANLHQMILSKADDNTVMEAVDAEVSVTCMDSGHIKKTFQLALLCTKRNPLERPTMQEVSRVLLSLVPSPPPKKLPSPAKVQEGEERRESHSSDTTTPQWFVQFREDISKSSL

[3] = molecular target: T3, ER-HA (Arabidopsis thaliana) (UniProt Q42371)
T3 sequence: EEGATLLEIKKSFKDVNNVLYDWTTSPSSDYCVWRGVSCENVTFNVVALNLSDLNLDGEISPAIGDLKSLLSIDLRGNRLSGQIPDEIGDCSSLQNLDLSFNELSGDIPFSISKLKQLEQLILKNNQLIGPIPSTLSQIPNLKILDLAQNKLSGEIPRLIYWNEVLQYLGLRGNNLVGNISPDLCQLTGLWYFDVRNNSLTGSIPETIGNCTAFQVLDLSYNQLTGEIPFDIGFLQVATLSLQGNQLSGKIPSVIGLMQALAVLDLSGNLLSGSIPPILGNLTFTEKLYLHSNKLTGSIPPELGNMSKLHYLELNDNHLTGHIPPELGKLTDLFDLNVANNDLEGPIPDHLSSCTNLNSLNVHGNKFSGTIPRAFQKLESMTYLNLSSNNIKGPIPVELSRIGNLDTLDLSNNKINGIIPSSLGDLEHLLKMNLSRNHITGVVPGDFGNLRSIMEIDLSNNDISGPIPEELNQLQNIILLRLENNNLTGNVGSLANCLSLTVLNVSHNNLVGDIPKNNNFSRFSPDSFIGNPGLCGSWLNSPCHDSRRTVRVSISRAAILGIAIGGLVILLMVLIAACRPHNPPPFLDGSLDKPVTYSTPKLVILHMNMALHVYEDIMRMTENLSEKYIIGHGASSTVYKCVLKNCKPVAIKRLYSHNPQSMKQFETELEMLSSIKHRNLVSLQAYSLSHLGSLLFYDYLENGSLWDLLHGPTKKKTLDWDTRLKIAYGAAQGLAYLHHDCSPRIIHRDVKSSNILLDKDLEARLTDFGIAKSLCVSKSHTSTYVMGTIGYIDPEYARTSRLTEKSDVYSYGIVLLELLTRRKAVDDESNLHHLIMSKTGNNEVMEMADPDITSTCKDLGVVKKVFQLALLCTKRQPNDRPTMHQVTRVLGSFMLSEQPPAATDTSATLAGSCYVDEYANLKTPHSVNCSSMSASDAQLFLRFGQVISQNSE

Measured: binding

B1: PXL2-flag (receptor, UniProt Q9M0G7 24-1013)
chain: SIDNVNELSVLLSVKSTLVDPLNFLKDWKLSDTSDHCNWTGVRCNSNGNVEKLDLAGMNLTGKISDSISQLSSLVSFNISCNGFESLLPKSIPPLKSIDISQNSFSGSLFLFSNESLGLVHLNASGNNLSGNLTEDLGNLVSLEVLDLRGNFFQGSLPSSFKNLQKLRFLGLSGNNLTGELPSVLGQLPSLETAILGYNEFKGPIPPEFGNINSLKYLDLAIGKLSGEIPSELGKLKSLETLLLYENNFTGTIPREIGSITTLKVLDFSDNALTGEIPMEITKLKNLQLLNLMRNKLSGSIPPAISSLAQLQVLELWNNTLSGELPSDLGKNSPLQWLDVSSNSFSGEIPSTLCNKGNLTKLILFNNTFTGQIPATLSTCQSLVRVRMQNNLLNGSIPIGFGKLEKLQRLELAGNRLSGGIPGDISDSVSLSFIDFSRNQIRSSLPSTILSIHNLQAFLVADNFISGEVPDQFQDCPSLSNLDLSSNTLTGTIPSSIASCEKLVSLNLRNNNLTGEIPRQITTMSALAVLDLSNNSLTGVLPESIGTSPALELLNVSYNKLTGPVPINGFLKTINPDDLRGNSGLCGGVLPPCSKFQRATSSHSSLHGKRIVAGWLIGIASVLALGILTIVTRTLYKKWYSNGFCGDETASKGEWPWRLMAFHRLGFTASDILACIKESNMIGMGATGIVYKAEMSRSSTVLAVKKLWRSAADIEDGTTGDFVGEVNLLGKLRHRNIVRLLGFLYNDKNMMIVYEFMLNGNLGDAIHGKNAAGRLLVDWVSRYNIALGVAHGLAYLHHDCHPPVIHRDIKSNNILLDANLDARIADFGLARMMARKKETVSMVAGSYGYIAPEYGYTLKVDEKIDIYSYGVVLLELLTGRRPLEPEFGESVDIVEWVRRKIRDNISLEEALDPNVGNCRYVQEEMLLVLQIALLCTTKLPKDRPSMRDVISMLGEAKPRRKSNSNEENTSRSLAEKHSSVFSTSPVNGLL
binds: all assays above

B2: PXL1-flag (receptor, UniProt Q9FRS6 24-1029)
chain: ETFQNSEQEILLAFKSDLFDPSNNLQDWKRPENATTFSELVHCHWTGVHCDANGYVAKLLLSNMNLSGNVSDQIQSFPSLQALDLSNNAFESSLPKSLSNLTSLKVIDVSVNSFFGTFPYGLGMATGLTHVNASSNNFSGFLPEDLGNATTLEVLDFRGGYFEGSVPSSFKNLKNLKFLGLSGNNFGGKVPKVIGELSSLETIILGYNGFMGEIPEEFGKLTRLQYLDLAVGNLTGQIPSSLGQLKQLTTVYLYQNRLTGKLPRELGGMTSLVFLDLSDNQITGEIPMEVGELKNLQLLNLMRNQLTGIIPSKIAELPNLEVLELWQNSLMGSLPVHLGKNSPLKWLDVSSNKLSGDIPSGLCYSRNLTKLILFNNSFSGQIPEEIFSCPTLVRVRIQKNHISGSIPAGSGDLPMLQHLELAKNNLTGKIPDDIALSTSLSFIDISFNHLSSLSSSIFSSPNLQTFIASHNNFAGKIPNQIQDRPSLSVLDLSFNHFSGGIPERIASFEKLVSLNLKSNQLVGEIPKALAGMHMLAVLDLSNNSLTGNIPADLGASPTLEMLNVSFNKLDGPIPSNMLFAAIDPKDLVGNNGLCGGVLPPCSKSLALSAKGRNPGRIHVNHAVFGFIVGTSVIVAMGMMFLAGRWIYTRWDLYSNFAREYIFCKKPREEWPWRLVAFQRLCFTAGDILSHIKESNIIGMGAIGIVYKAEVMRRPLLTVAVKKLWRSPSPQNDIEDHHQEEDEEDDILREVNLLGGLRHRNIVKILGYVHNEREVMMVYEYMPNGNLGTALHSKDEKFLLRDWLSRYNVAVGVVQGLNYLHNDCYPPIIHRDIKSNNILLDSNLEARIADFGLAKMMLHKNETVSMVAGSYGYIAPEYGYTLKIDEKSDIYSLGVVLLELVTGKMPIDPSFEDSIDVVEWIRRKVKKNESLEEVIDASIAGDCKHVIEEMLLALRIALLCTAKLPKDRPSIRDVITMLAEAKPRRKSVCQVAGDLPIFRNSPVVGLI
binds: all assays above

— PMC13321232
